For 19 substances, binding results are on record in publication doi:10.1101/2020.05.08.084814.

The chains behind the UniProt entries cited, without tags or fusion partners.
UniProt Q91572: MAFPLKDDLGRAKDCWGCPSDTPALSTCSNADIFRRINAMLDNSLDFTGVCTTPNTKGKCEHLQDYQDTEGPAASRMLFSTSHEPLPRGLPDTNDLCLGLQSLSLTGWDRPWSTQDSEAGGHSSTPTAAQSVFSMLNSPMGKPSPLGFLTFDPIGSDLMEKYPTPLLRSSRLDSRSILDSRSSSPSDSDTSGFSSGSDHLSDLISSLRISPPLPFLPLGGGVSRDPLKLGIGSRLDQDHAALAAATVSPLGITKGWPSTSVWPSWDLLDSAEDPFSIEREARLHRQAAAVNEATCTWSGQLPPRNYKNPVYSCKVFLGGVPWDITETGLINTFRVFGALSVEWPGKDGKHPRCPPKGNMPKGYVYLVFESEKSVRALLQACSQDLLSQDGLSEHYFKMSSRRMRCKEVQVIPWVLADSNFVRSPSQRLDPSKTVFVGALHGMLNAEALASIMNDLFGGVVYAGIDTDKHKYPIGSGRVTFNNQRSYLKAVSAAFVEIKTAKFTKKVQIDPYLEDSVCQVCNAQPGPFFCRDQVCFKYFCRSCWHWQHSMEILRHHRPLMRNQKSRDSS
UniProt Q1JQ73: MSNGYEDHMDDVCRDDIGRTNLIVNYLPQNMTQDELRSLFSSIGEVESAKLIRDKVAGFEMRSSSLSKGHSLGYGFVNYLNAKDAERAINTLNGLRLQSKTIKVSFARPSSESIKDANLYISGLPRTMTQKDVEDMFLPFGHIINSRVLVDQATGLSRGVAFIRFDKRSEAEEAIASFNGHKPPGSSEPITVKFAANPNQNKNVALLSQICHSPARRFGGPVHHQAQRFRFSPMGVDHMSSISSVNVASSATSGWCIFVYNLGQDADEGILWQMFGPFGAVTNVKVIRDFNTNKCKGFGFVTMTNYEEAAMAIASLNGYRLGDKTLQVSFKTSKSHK
UniProt Q91903: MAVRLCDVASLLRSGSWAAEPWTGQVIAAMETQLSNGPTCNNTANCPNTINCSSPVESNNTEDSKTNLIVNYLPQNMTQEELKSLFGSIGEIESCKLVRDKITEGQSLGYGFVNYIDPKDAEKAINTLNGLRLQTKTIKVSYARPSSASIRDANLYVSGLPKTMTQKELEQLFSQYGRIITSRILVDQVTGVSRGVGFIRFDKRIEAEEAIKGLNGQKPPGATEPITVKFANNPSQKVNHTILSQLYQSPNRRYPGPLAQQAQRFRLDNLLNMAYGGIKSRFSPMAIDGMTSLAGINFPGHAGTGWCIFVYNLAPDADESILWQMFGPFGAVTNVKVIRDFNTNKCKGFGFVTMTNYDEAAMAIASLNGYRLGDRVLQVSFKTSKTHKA

Assay [1] has as its target T1, hnRNPAB (40LoVE) (Xenopus laevis (endogenous in oocytes)).
T1 sequence: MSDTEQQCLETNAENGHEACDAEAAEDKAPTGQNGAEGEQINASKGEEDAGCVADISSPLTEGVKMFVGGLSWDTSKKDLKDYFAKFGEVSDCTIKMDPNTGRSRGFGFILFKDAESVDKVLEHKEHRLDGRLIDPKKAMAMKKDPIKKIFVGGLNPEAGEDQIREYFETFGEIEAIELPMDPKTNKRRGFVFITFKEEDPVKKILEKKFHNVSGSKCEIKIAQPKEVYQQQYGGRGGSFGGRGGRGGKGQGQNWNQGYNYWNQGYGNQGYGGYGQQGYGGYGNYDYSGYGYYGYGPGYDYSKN
Briefly: affinity purification with mass spectrometry.

Assay [2] deals with T2, Stau1 (Staufen1) (Xenopus laevis (endogenous in oocytes)) (UniProt Q6GM35).
T2 sequence: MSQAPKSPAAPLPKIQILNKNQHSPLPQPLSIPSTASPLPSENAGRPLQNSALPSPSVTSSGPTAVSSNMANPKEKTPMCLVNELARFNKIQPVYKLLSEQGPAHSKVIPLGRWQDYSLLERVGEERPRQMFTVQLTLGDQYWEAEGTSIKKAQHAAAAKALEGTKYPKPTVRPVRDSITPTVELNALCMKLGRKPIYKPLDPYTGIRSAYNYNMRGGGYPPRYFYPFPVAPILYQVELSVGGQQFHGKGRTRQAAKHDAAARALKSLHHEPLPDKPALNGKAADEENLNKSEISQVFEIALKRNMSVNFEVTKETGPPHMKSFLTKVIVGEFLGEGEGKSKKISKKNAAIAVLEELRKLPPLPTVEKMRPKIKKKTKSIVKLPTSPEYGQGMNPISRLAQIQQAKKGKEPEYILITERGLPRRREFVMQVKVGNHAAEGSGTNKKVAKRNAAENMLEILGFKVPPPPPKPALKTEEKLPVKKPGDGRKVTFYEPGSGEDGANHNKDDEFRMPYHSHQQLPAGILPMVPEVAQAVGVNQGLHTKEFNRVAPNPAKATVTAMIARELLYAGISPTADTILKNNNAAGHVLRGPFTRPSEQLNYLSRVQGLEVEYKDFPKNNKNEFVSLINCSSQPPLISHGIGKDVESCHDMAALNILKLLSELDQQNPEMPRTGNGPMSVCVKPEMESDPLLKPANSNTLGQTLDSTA
Briefly: affinity purification with mass spectrometry.

Results are given in words; binding and its absence hold for the method and conditions named. Binding seen in cells or lysates may run through a third protein. Here binding means that the protein was enriched with, or labelled near, the bait; the list need not be complete.

On to “C14orf166 (Xenopus laevis (endogenous in oocytes))”, for which the binding entry in assay [1] and in assay [2] was “binds” each time.

Regarding Cpeb1 (from UniProt Q91572 1-568), the binding result in assay [1] and in assay [2] was “binds” each time.

Regarding “Ddx3 (Xenopus laevis (endogenous in oocytes))”, the binding result in assay [1] and in assay [2] was “binds” in each case.

As to “Dynll1 (Xenopus laevis (endogenous in oocytes))”, the binding result in assay [1] and in assay [2] was “binds” each time.

Regarding Elavl1 (from UniProt Q1JQ73 1-337), the binding result in assay [1] and in assay [2] was “binds” in each case.

Turning to Elavl2 (from UniProt Q91903 1-389), the binding result in assay [1] and in assay [2] was “binds” throughout.

In the case of “Fam98B (Xenopus laevis (endogenous in oocytes))”, the binding result in assay [1] and in assay [2] was “binds” each time.

For “G3bp2 (Xenopus laevis (endogenous in oocytes))”, the binding result in assay [1] and in assay [2] was “binds” each time.

For “Kif3b (Xenopus laevis (endogenous in oocytes))”, the binding result in assay [1] and in assay [2] was “binds” throughout.

Take “Lsm2 (Xenopus laevis (endogenous in oocytes))”: the binding result in assay [1] and in assay [2] was “binds” throughout.

“Lsm14A (Xenopus laevis (endogenous in oocytes))”: the binding result in assay [1] and in assay [2] was “binds” throughout.

On to “Lsm14B (Xenopus laevis (endogenous in oocytes))”, for which the binding result in assay [1] and in assay [2] was “binds” throughout.

Consider “PTB (Ptbp1) (Xenopus laevis (endogenous in oocytes))”, for which the binding result in assay [1] and in assay [2] was “binds” in each case.

As for “Pabp (Xenopus laevis (endogenous in oocytes))”, the binding result in assay [1] and in assay [2] was “binds” each time.

With “Padi2 (Xenopus laevis (endogenous in oocytes))”, the binding entry in assay [1] and in assay [2] was “binds” each time.

Regarding “Stau2 (Xenopus laevis (endogenous in oocytes))”, the binding entry in assay [1] and in assay [2] was “binds” throughout.

Regarding “Tia1 (Xenopus laevis (endogenous in oocytes))”, the binding result in assay [1] and in assay [2] was “binds” in each case.

For “Vera (Igf2bp3) (Xenopus laevis (endogenous in oocytes))”, the binding result in assay [1] and in assay [2] was “binds” each time.

As for “Ybx2 (Xenopus laevis (endogenous in oocytes))”, the binding entry in assay [1] and in assay [2] was “binds” each time.
